Holding throughout (experiment): two-hybrid; yeast two-hybrid, pDEST22 (AD) and pDEST32 (BD) fusions, strains PJ69-4A and PJ69-4alpha, -LWH dropout medium with 3-AT (5 mM in Figure 2A), room temperature, both orientations where possible
Experiment [1] addresses CAULIFLOWER (CAL), BD fusion (Arabidopsis) (UniProt Q39081).
The target in experiment [2] is … 4 (SEP4), BD fusion (Arabidopsis) (UniProt P29383).
For experiment [3], the target named is AGAMOUS (AG), yeast two-hybrid fusion (Arabidopsis) (UniProt P17839).
The target of experiment [4] is TOMATO AG 1 (TAG1), yeast two-hybrid fusion (tomato) (UniProt Q40168).
The target of experiment [5] is … 3 (SEP3), yeast two-hybrid fusion (Arabidopsis) (UniProt O22456).

Amino acid sequences for entries named in this document (tags omitted).
UniProt Q39081: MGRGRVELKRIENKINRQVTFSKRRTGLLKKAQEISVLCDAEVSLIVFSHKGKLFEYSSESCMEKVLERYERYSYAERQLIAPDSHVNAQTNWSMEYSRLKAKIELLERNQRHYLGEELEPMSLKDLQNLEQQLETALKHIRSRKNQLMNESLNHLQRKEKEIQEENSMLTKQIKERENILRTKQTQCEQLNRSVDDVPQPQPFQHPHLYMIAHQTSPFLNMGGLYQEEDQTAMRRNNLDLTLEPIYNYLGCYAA
UniProt P17839: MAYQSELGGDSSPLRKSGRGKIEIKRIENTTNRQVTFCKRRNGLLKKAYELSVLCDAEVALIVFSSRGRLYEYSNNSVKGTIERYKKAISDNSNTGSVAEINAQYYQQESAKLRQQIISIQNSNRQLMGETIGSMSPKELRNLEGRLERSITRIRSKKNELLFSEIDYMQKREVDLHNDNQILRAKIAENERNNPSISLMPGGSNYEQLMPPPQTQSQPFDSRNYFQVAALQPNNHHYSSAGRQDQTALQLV
UniProt Q40168: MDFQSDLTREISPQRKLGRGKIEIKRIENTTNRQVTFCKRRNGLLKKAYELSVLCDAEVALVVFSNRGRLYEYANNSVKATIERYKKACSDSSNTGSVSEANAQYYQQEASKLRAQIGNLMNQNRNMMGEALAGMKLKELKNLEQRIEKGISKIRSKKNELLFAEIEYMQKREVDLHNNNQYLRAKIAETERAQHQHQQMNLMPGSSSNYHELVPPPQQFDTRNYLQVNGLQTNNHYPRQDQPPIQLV

The values that follow come from PMC11602133.

No constants are given. Whether binding was seen depends on the method and setting. For some assays here: Binding calls can cover weak binding; strength is not graded here.

Take “SEP3_S59S60S61 (SEP3 with shortened loop), yeast two-hybrid fusion (from UniProt O22456)”: the binding result in experiment [1] and in experiment [2] was “no binding” in each case.
For “tomato FUL2, yeast two-hybrid fusion (from UniProt A0A3Q7FTD8)”, the binding result in experiment [3], in experiment [4] and in experiment [5] was “binds” in each case.
